Experimental findings from publication PMC3427875 are described below.

Tags and fusion partners may be left off the protein sequences shown.

For the data set, the system named is T1, B5RBP3 (StLSH10) (Solanum tuberosum (potato)).
T1 sequence (looked up): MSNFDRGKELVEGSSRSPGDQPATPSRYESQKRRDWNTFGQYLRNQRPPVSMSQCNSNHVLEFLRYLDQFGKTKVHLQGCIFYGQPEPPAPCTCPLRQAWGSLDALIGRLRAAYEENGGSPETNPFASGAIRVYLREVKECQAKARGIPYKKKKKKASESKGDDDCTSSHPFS
Put plainly: EMSA. To be noted: shift with protein as low as 30 nM, 5 fmol probe; Light Shift Chemiluminescent RNA EMSA kit binding buffer (Pierce; composition, salt and pH not given), 5 fmol biotin RNA, on ice 45 min; recombinant protein; residues 1-173; protein details: His (pET-28a); label: biotin-11-UTP, internal; probe letters rebuilt from the primers and the genome. (A gel shift assay detects complexes by their altered migration in electrophoresis.)

With “GGGAGAAUACCAGAAAGUCUCGUAUUGAUAGCUGAAAAGAUAAAAGGAAGUUAGGGAUACUCUUAUAUUGUGUGAGGCCUUCUGGCCCAAGUCGGAGGACCCAAUUUGAUACAACCUAUCAUAGGAGAAAAGAAGUGGAGACAAAAUUAAAGUAACAAAAUUUUAAAGCACACUUUCUAGUAUAUAUACUUCUUUUUUUUAUAGUAUAGAAAAGAAGAGAUUUUGUGCUUUAGUGUAUAGAUAGAGUCUACUUAGUAUAGGUUAUACUUCUAGUUCCUUGAGAAGAUUGAUACAACUAGUAGUAUUUUUUUUCUUUCUGGGUUGGCUUGGAGUACUAUUUUAAGUUAAUAUGGAAACUAGCUAUAGUAUAUGUUGUAAAGUUGUGAUAUUGUUCCUCUCAAUUUGCAUAUAAUUUGAAAUAUUUUGUACCUACUAGCUAGUCUCUAAAUUAUGUUUCCAUUGCUUGUAAUUGCAAUUUUAUUUGAAUUUUGUGCUAUCAUUAUUAGAUUAGCCCCGGGCUG [StBEL5 full-length 3' UTR]”, the binding result is recorded as “binds”.
